Source: paper PMC4320815
These are yes or no findings as the source states them, for the method shown. In cells and extracts the contact can be indirect. Some results given as binding are weak or reduced against the parent protein; the word gives no strength.

Amino acid sequences for entries named in this document (tags omitted).
UniProt Q02248: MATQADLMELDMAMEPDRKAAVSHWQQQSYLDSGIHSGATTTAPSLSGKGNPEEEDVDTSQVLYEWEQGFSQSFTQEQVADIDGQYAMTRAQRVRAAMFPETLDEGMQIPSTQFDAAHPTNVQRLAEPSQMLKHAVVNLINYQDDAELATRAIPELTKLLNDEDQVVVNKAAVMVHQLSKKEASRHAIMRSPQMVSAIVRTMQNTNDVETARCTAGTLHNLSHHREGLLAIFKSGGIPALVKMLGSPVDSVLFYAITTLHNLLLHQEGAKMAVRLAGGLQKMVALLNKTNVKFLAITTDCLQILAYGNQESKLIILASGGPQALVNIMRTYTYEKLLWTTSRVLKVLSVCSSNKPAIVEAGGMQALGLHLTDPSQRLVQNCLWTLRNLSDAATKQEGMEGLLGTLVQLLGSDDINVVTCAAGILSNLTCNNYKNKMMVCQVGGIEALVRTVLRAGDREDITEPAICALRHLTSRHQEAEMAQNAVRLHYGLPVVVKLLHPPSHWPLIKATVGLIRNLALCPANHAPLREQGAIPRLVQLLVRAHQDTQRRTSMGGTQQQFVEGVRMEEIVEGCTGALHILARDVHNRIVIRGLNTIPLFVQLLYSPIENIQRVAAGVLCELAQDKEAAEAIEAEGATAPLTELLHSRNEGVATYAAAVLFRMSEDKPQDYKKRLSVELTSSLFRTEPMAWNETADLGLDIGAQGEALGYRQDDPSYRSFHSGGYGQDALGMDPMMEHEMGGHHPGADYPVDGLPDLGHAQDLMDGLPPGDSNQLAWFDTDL
UniProt P47806: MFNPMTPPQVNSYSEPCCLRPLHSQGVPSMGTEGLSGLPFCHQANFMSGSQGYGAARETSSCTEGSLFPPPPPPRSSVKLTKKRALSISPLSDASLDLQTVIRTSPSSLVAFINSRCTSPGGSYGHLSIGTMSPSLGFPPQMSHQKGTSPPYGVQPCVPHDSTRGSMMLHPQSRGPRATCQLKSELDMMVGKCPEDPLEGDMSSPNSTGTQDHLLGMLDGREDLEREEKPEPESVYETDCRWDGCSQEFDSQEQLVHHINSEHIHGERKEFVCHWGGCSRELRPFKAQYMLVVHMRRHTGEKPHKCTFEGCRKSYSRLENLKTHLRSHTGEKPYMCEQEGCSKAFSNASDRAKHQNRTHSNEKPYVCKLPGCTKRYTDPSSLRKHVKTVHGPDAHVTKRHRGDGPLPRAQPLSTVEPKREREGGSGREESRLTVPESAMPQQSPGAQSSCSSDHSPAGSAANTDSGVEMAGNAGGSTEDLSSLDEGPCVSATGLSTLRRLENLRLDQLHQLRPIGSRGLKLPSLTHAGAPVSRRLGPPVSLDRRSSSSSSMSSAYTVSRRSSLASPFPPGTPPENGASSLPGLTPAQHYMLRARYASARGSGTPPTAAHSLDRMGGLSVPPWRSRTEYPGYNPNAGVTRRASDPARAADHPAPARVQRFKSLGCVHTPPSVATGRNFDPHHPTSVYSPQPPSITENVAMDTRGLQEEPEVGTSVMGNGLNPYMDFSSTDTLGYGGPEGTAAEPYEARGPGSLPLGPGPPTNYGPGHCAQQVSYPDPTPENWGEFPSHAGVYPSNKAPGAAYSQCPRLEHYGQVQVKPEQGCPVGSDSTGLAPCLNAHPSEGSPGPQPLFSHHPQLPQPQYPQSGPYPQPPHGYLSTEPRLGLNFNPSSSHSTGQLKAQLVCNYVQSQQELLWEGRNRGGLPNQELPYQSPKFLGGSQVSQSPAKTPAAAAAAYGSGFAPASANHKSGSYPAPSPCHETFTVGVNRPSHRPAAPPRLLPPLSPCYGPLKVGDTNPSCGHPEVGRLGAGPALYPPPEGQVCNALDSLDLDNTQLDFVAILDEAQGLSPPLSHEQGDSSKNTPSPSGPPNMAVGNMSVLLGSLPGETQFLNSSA

What was measured:
[1] = target: β-catenin (mouse (endogenous in primary Ptch+/- MB cells)) (UniProt Q02248); test: proximity ligation; primary Ptch+/- MB cells on μ-slides, NaCl or LiCl for 8 h; anti-Gli1 and anti-β-catenin antibodies, Duolink In Situ PLA probes; confocal microscopy
[2] = target: β-catenin (mouse (endogenous in primary Ptch+/- MB cells)) (UniProt Q02248); test: co-IP; extracts of primary Ptch+/- MB cells treated with NaCl or LiCl (8 h); immunoprecipitated with anti-β-catenin antibody prebound to protein G-agarose; Gli1 detected by Western blot

binding [1]: binds
binding [2]: binds
Substance: Gli1 (from UniProt P47806 1-1111)
